In US20250092054A1, “FUSED PYRIDINES FOR CONTROLLING INVERTEBRATE PESTS” (FMC Corporation, priority 2021, published 2025):
Some entries share one result that the patent states for a list of compounds.

Experiments:
[1] = tested on: diamondback moth (Plutella xylostella (L.)); assay: Test A: control of diamondback moth, foliar spray on mustard plant; assay type: in vivo; conditions: mustard plant pre-infested with neonate larvae, assessed after 6 days
[2] = tested on: fall armyworm (Spodoptera frugiperda (J. E. Smith)); assay: Test B: control of fall armyworm, foliar spray on corn (maize) plant; assay type: in vivo; conditions: corn plant pre-infested with 1-day-old larvae, assessed after 6 days
[3] = tested on: potato leafhopper (Empoascafabae (Harris)); assay: Test D: control of potato leafhopper through contact and/or systemic means; assay type: in vivo; conditions: Soleil bean plant post-infested with adults, assessed after 6 days
Procedure: (§1) Test compounds were formulated using a solution containing 10% acetone, 90% water and 300 ppm Activator 90® non-ionic surfactant (Loveland Products, Loveland, Colorado, USA). The formulated compounds were applied in 1 mL of liquid through an atomizer nozzle positioned 1.27 cm (0.5 inches) above the top of each test unit. Test compounds were sprayed at the rates indicated, and each test was replicated three times.
For evaluating control of potato leafhopper (Empoascafabae (Harris)) through contact and/or systemic means, the test unit consisted of a small open container with a 5-6-day-old Soleil bean plant (primary leaves emerged) inside. White sand was added to the top of the soil, and one of the primary leaves was excised prior to application of the test compound.
Test compounds were formulated and sprayed at 50 and 10 ppm. After spraying of the formulated test compound, the test units were allowed to dry for 1 hour before they were post-infested with 5 potato leafhoppers (18-to-21-day-old adults). A black, screened cap was placed on the top of the test unit, and the test units were held for 6 days in a growth chamber at 20° C. and 70% relative humidity. Each test unit was then visually assessed for insect mortality.

[4] = tested on: green peach aphid (Myzus persicae (Sulzer)); assay: Test E: control of green peach aphid through contact and/or systemic means; assay type: in vivo; conditions: pre-infested radish plant, assessed after 6 days
Procedure: as §1
For evaluating control of green peach aphid (Myzus persicae (Sulzer)) through contact and/or systemic means, the test unit consisted of a small open container with a 12-15-day-old radish plant inside. This was pre-infested by placing on a leaf of the test plant 30-40 aphids on a piece of leaf excised from a culture plant (cut-leaf method). The aphids moved onto the test plant as the leaf piece desiccated. After pre-infestation, the soil of the test unit was covered with a layer of sand.
Test compounds were formulated and sprayed at 50 and 10 ppm. After spraying of the formulated test compound, each test unit was allowed to dry for 1 hour and then a black, screened cap was placed on top. The test units were held for 6 days in a growth chamber at 19-21° C. and 50-70% relative humidity. Each test unit was then visually assessed for insect mortality.

[5] = tested on: cotton melon aphid (Aphis gossypii (Glover)); assay: Test F: control of cotton melon aphid through contact and/or systemic means; assay type: in vivo; conditions: sprayed at 50 ppm; pre-infested okra plant; assessed after 6 days
Procedure: as §1
For evaluating control of cotton melon aphid (Aphis gossypii (Glover)) through contact and/or systemic means, the test unit consisted of a small open container with a 5-day-old okra plant inside. This was pre-infested with 30-40 insects on a piece of leaf according to the cut-leaf method, and the soil of the test unit was covered with a layer of sand.
Test compounds were formulated and sprayed at 50 and 10 ppm. After spraying, the test units were maintained in a growth chamber for 6 days at 19° C. and 70% relative humidity. Each test unit was then visually assessed for insect mortality.

[6] = tested on: Western Flower Thrips (Frankliniellla occidentalis (Pergande)); assay: Test G: control of Western Flower Thrips through contact and/or systemic means; assay type: in vivo, Frankliniella occidentalis; conditions: Soleil bean plant, thrips adults and nymphs added, assessed after 6 days

Row | SMILES | control efficacy very good to excellent: feeding damage (40% or less feeding damage and/or 100% mortality) ([1]; sprayed at 0.4 ppm) [%] | control efficacy very good to excellent: feeding damage (40% or less feeding damage and/or 100% mortality) ([1]; sprayed at 2 ppm) [%] | control efficacy very good to excellent: feeding damage (40% or less feeding damage and/or 100% mortality) ([2]; sprayed at 0.4 ppm) [%] | control efficacy very good to excellent: feeding damage (40% or less feeding damage and/or 100% mortality) ([2]; sprayed at 2 ppm) [%] | mortality ([3]; sprayed at 50 ppm) | mortality ([4]; sprayed at 10 ppm) | mortality ([4]; sprayed at 50 ppm) | mortality [5] | control efficacy very good to excellent: plant damage (30% or less plant damage and/or 100% mortality) ([6]; sprayed at 0.4 ppm) [%] | control efficacy very good to excellent: plant damage (30% or less plant damage and/or 100% mortality) ([6]; sprayed at 2 ppm) [%] | mortality ([3]; sprayed at 10 ppm)
1 | O=C(NC1CSC1)c1cnc(C2=NOC(c3cc(Cl)cc(Cl)c3)(C(F)(F)F)C2)c2sccc12 (stereo not shown) [Compound 10] | ≤ 40 | ≤ 40 | ≤ 40 | ≤ 40 | at least 80% | at least 80% | at least 80% | at least 80% | ≤ 30 | ≤ 30 | 
2 | O=C(NC1C[S+]([O-])C1)c1cnc(C2=NOC(c3cc(Cl)cc(Cl)c3)(C(F)(F)F)C2)c2sccc12 (stereo not shown) [Compound 6] | ≤ 40 | ≤ 40 |  | ≤ 40 | at least 80% |  | at least 80% | at least 80% | ≤ 30 | ≤ 30 | at least 80%
3 | C[C@@H](NC(=O)c1cnc(C2=NOC(c3cc(Cl)cc(Cl)c3)(C(F)(F)F)C2)c2sccc12)C(N)=O (stereo partly shown) [Compound 12] | ≤ 40 | ≤ 40 |  | ≤ 40 | at least 80% |  |  | at least 80% |  | ≤ 30 | 
